Data as given in US20030105024A1 (STATE OF OREGON, published 2003).
No constants are given. Whether binding was seen depends on the method and setting. Some binding calls cover weakened binding; strength is not graded here.

Protein sequences, listed by entry. Tags and fused reporters are not part of them. Lines headed by an entry give the natural chain unless they say otherwise; changes in a name come on top.
UniProt P01189: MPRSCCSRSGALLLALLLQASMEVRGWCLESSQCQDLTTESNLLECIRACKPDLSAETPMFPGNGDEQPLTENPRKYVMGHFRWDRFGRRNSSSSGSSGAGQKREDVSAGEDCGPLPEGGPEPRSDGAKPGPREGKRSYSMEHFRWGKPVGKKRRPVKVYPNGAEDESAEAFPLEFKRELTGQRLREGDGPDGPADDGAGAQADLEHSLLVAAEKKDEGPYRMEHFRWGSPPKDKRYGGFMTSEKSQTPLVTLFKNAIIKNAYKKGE

Target: T1, rat melanocortin-3 receptor (rat, UniProt P32244 1-323)
T1 chain: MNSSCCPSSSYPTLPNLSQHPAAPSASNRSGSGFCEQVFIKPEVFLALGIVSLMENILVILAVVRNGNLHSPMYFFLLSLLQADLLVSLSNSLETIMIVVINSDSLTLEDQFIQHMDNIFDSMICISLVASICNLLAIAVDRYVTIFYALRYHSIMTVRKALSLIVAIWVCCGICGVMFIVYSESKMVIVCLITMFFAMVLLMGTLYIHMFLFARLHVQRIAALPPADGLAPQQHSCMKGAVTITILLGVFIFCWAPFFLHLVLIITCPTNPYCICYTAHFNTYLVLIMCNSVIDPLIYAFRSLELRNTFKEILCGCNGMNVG
Assay: relative order of potency, competition with 125I-NDP-MSH on cells expressing rat MC-3 receptor

binding: binds
B1: γ-melanocyte stimulating hormone (peptide, UniProt P01189 77-88, looked up)
peptide: YVMGHFRWDRFG
notes: domain: γMSH; Printed without an index; also called γMSH; γ-MSH
